Consider 16 compounds from PubChem BioAssay AID248 (DTP/NCI, 2004).

The list shows only some results of the screen, not a fair sample: it is rich in T/C values a quarter to a half above the control, in often repeated tests (any T/C) and in doses without a T/C. Further doses and runs are listed elsewhere. T/C: endpoint of the treated group in % of that of the vehicle group. Some doses have a count of surviving animals in place of a T/C: the source holds a T/C of zero for them, seemingly a mark for toxic or unscored doses. Some doses without a T/C left all or most animals alive at the check, yet need not have been tolerated: the source hardly ever lists a survival T/C far under the control, and the zero likely stands for such cases as well. Counts of survivors are from the toxicity check (mostly the fifth day) where no day follows; animals may have died later. Schedule codes are those of the source, taken here to give the interval after Q, in days (D) or hours (H), and the number of doses after X. Where survival is the endpoint, this PubChem deposit counts one and a half times the control or more as active, and values a quarter to a half above the control carry no call in these data; other NCI protocols may use other cut-offs. Some doses were run more than once; their values stand side by side, smallest first. Some T/C values are followed by the survivors on the day toxicity was checked, most often the fifth; where none is given, no animal had died by that day.

This assay deals with L1210 leukemia ip in BDF1 mice, survival T/C. The assay is described as follows: NCI In Vivo Anticancer Drug Screen. Data for tumor model L1210 Leukemia (intraperitoneal) in B6D2F1 (BDF1) mice. As to conditions: T/C endpoint: mean survival time, higher T/C = longer survival.
Setting [1] is: dose: 300.0 mg/kg/injection, schedule: Q01DX001 (ip), vehicle: saline.
The mark [2] stands for this setting: dose: 200.0 mg/kg/injection, schedule: Q04DX003 (ip), vehicle: saline with Tween-80.
[3] abbreviates: dose: 400.0 mg/kg/injection, schedule: Q04DX003 (ip), vehicle: saline with Tween-80.
Setting [4] is: dose: 400.0 mg/kg/injection, schedule: Q01DX009 (ip), vehicle: Klucel (hydroxypropylcellulose) (HPC).
The mark [5] stands for this setting: dose: 200.0 mg/kg/injection, schedule: Q04DX003 (ip), vehicle: saline.

Turning to `COc1ccccc1N=C(N)N=C(N)N`, the survivor count under setting [1] was 1 of 6.
On to `CCNC(=S)Nc1ccc(Cl)cc1`, for which the survivor count under setting [2] is reported as 0 of 6 and the survivor count under setting [3] was 0 of 6.
`CCCCCCOc1ccc(CC(N)C(=O)O)cc1N(CCCl)CCCl` (stereo not drawn): the T/C by setting is: (dose: 3.7 mg/kg/injection, schedule: Q01DX009 (ip), vehicle: carboxymethylcellulose (CMC)) 129 % of control; (dose: 5.6 mg/kg/injection, schedule: Q01DX009 (ip), vehicle: carboxymethylcellulose (CMC)) 146 % of control [5 of 6 alive]; (dose: 6.6 mg/kg/injection, schedule: Q01DX009 (ip), vehicle: carboxymethylcellulose (CMC)) 127 % of control; (dose: 8.5 mg/kg/injection, schedule: Q01DX009 (ip), vehicle: carboxymethylcellulose (CMC)) 132 and 147 % of control; (dose: 10.0 mg/kg/injection, schedule: Q01DX009 (ip), vehicle: carboxymethylcellulose (CMC)) 127 % of control; (dose: 13.0 mg/kg/injection, schedule: Q01DX009 (ip), vehicle: carboxymethylcellulose (CMC)) 143 % of control. Further, the T/C runs as follows: (dose: 15.0 mg/kg/injection, schedule: Q01DX001 (ip), vehicle: carboxymethylcellulose (CMC)) 136 % of control; (dose: 20.0 mg/kg/injection, schedule: Q01DX009 (ip), vehicle: carboxymethylcellulose (CMC)) 132 % of control; (dose: 30.0 mg/kg/injection, schedule: Q01DX001 (ip), vehicle: Klucel (hydroxypropylcellulose) (HPC)) 142 % of control; (dose: 30.0 mg/kg/injection, schedule: Q01DX001 (ip), vehicle: carboxymethylcellulose (CMC)) 126 % of control [4 of 6 alive]; (dose: 45.0 mg/kg/injection, schedule: Q01DX001 (ip), vehicle: Klucel (hydroxypropylcellulose) (HPC)) 138 % of control [4 of 5 alive]; (dose: 68.0 mg/kg/injection, schedule: Q01DX001 (ip), vehicle: Klucel (hydroxypropylcellulose) (HPC)) 132 % of control. Also, the survivor count (dose: 30.0 mg/kg/injection, schedule: Q01DX009 (ip), vehicle: carboxymethylcellulose (CMC)) was 3 of 6; the survivor count (dose: 60.0 mg/kg/injection, schedule: Q01DX001 (ip), vehicle: carboxymethylcellulose (CMC)) is recorded as 0 of 6; the survivor count (dose: 75.0 mg/kg/injection, schedule: Q01DX001 (ip), vehicle: carboxymethylcellulose (CMC)) is 1 of 6; the survivor count (dose: 150.0 mg/kg/injection, schedule: Q01DX001 (ip), vehicle: carboxymethylcellulose (CMC)) is reported as 0 of 6; the survivor count (dose: 300.0 mg/kg/injection, schedule: Q01DX001 (ip), vehicle: carboxymethylcellulose (CMC)) is on record as 0 of 6.
Take `OCP(CO)CO.[Cl][Hg][Cl]`: the survivor count (dose: 100.0 mg/kg/injection, schedule: Q01DX001 (ip), vehicle: saline) is reported as 0 of 6 and the survivor count under setting [1] was 0 of 6.
As for `CCCCCCCCCCCCC[n+]1cccc(C#N)c1`, the survivor count by setting is: (dose: 40.0 mg/kg/injection, schedule: Q01DX001 (ip), vehicle: saline) 3 of 6; (dose: 75.0 mg/kg/injection, schedule: Q01DX001 (ip), vehicle: acetone) 0 of 6; (dose: 150.0 mg/kg/injection, schedule: Q01DX001 (ip), vehicle: acetone) 0 of 6; (dose: 300.0 mg/kg/injection, schedule: Q01DX001 (ip), vehicle: acetone) 0 of 6.
For `Cc1ccc(CNc2ccc(Cl)cc2)cc1`, the survivor count under setting [4] is reported as 2 of 6.
`Clc1ccc(N2CCNCC2)cc1`: the survivor count reads like this: (dose: 150.0 mg/kg/injection, schedule: Q01DX001 (ip), vehicle: saline) 2 of 6; under setting [1], 0 of 6.
As for `O=C(Nc1cccc([N+](=O)[O-])c1)c1ccc(Cl)c(Cl)c1`, the survivor count (dose: 100.0 mg/kg/injection, schedule: Q04DX003 (ip), vehicle: saline with Tween-80) is 3 of 3.
For the compound `Cn1c[n+](C)ccc1=O`, where the note is “dose: 400.0 mg/kg/injection, schedule: Q01DX009 (ip), vehicle: water”, the survivor count is recorded as 2 of 6.
On to `CC(/C=C(\C)N1CCCC1)=[N+]1CCCC1`, for which the survivor count (dose: 3.12 mg/kg/injection, schedule: Q01DX009 (ip), vehicle: saline) was 3 of 6; the survivor count (dose: 6.25 mg/kg/injection, schedule: Q04DX003 (ip), vehicle: saline) was 2 of 6; the survivor count (dose: 12.5 mg/kg/injection, schedule: Q04DX003 (ip), vehicle: saline) is given as 0 of 6; the survivor count (dose: 25.0 mg/kg/injection, schedule: Q04DX003 (ip), vehicle: saline) is 0 of 6; the survivor count (dose: 50.0 mg/kg/injection, schedule: Q04DX003 (ip), vehicle: saline) is 1 of 6; the survivor count (dose: 100.0 mg/kg/injection, schedule: Q04DX003 (ip), vehicle: saline) is on record as 0 of 6. Also, the survivor count reads like this: under setting [5], 0 of 6; (dose: 400.0 mg/kg/injection, schedule: Q04DX003 (ip), vehicle: saline) 0 of 6.
As for `CCCCCCCCCCCc1nc(N)nc(NCCc2ccccc2)n1`, where the note is “dose: 50.0 mg/kg/injection, schedule: Q01DX009 (ip), vehicle: Klucel (hydroxypropylcellulose) (HPC)”, the survivor count was 2 of 3.
With `O=c1[nH]cc[nH]1`, the T/C runs as follows: (dose: 400.0 mg/kg/injection, schedule: Q01DX009 (ip), vehicle: saline) 131 % of control; (dose: 600.0 mg/kg/injection, schedule: Q01DX009 (ip), vehicle: saline) 130 % of control.
Take `CSc1nn[nH]n1`: the survivor count is given as 3 of 6 under setting [5] and 0 of 6 (dose: 400.0 mg/kg/injection, schedule: Q01DX001 (ip), vehicle: acetone).
For the compound `CC1C(c2ccccc2)OCN1CN1C(=O)C=CC1=O` (stereo not drawn) (tested in a mixture with another compound), the survivor count is reported as 6 of 6 under setting [2] and 6 of 6 under setting [3].
Turning to `Cc1cc(=O)[nH]c(N2C(=O)c3ccccc3C2=O)n1`, the survivor count (dose: 100.0 mg/kg/injection, schedule: Q04DX003 (ip), vehicle: Klucel (hydroxypropylcellulose) (HPC)) is 6 of 6.
Turning to `N#Cc1ccc(O)cc1`, the survivor count under setting [4] is given as 3 of 3.
